These are yes or no findings as the source states them, for the method shown. Binding seen in cells or lysates may run through a third protein. Some results given as binding are weak or reduced against the parent protein; the word gives no strength.
Tests used:
[1] = biological target: FLAG-tagged full-length OVOL1 (human) (UniProt O14753); assay: co-IP; HEK293T cells transfected with both partners; TNE lysis buffer (50 mM Tris-HCl pH 7.4, 1 mM EDTA, 150 mM NaCl, 1% NP40); anti-FLAG agarose beads, 30 min, 4 °C; western blotting
[2] = biological target: SMAD7 (endogenous) (human (endogenous in MCF10A-M2)) (UniProt O15105); assay: co-IP; endogenous proteins, MCF10A-M2 lysate in TNE buffer; antibody against SMAD7 overnight at 4 °C, then Protein G agarose 2 h; IgG isotype as control
[3] = biological target: SMAD7 (construct not shown; Supplementary Fig. 7d and 8a) (UniProt O15105); assay: co-IP; SMAD7 with E3 ligases or DUBs, without or with ectopic expression of OVOL1 (Supplementary Fig. 8a); cells, tags and who was precipitated not shown
[4] = biological target: FLAG-tagged full-length SMAD family member 7 (SMAD7) (UniProt O15105); assay: co-IP; HEK293T cells transfected with both partners; TNE lysis buffer (50 mM Tris-HCl pH 7.4, 1 mM EDTA, 150 mM NaCl, 1% NP40); anti-FLAG agarose beads, 30 min, 4 °C; western blotting
SMAD2 = SMAD2 (UniProt Q15796); assay: co-IP; OVOL2 with SMADs (Supplementary Fig. 7d); cells, tags and who was precipitated not shown
SMAD3 = SMAD3 (UniProt P84022); assay: as above
SMAD4 = SMAD4 (UniProt Q13485); assay: as above
[5] = biological target: SMAD7 (construct not shown; Supplementary Fig. 7d and 8a) (UniProt O15105); assay: as above

Sequences of proteins named here, by UniProt entry; tags and fusion partners are left off.
UniProt O14753: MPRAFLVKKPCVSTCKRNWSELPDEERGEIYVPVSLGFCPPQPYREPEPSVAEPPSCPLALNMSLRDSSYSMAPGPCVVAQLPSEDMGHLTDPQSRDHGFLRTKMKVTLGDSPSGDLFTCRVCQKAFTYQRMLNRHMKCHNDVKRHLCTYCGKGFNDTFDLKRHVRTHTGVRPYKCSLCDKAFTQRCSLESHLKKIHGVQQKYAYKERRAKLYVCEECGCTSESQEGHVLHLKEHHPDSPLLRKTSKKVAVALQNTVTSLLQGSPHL
UniProt O15105: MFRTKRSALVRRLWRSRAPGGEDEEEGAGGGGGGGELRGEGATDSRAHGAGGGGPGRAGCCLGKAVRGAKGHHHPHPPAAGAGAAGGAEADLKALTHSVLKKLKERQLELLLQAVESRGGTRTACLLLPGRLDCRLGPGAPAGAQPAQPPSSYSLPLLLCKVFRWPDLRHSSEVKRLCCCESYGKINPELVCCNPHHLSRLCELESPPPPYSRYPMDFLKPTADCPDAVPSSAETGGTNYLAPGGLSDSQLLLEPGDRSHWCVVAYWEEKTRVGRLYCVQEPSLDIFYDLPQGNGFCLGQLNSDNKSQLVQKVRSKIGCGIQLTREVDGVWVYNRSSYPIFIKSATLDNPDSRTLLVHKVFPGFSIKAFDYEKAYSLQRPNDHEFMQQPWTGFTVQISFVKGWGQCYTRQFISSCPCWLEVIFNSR
UniProt Q15796: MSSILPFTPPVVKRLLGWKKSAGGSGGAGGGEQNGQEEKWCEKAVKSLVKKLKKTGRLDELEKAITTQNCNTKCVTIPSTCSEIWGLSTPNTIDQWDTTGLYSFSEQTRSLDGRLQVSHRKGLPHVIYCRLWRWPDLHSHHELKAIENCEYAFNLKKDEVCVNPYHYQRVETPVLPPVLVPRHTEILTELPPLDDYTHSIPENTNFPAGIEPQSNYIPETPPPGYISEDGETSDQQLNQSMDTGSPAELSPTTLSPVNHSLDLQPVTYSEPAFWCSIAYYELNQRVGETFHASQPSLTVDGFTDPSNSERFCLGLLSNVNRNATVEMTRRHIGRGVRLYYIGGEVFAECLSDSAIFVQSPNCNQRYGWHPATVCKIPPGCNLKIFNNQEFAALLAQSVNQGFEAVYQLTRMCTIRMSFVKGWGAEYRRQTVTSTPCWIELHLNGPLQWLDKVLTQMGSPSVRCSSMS
UniProt P84022: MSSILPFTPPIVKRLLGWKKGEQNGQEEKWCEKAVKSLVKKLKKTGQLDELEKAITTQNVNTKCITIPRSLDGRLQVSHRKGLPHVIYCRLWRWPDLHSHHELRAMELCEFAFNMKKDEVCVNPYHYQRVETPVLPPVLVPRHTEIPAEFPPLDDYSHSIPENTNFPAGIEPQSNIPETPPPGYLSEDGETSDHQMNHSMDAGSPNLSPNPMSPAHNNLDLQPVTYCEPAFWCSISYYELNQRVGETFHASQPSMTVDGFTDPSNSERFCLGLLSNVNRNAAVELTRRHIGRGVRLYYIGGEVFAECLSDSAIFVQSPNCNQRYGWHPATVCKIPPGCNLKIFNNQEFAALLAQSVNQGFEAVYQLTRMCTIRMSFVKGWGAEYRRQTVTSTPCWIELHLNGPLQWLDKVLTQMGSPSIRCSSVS
UniProt Q13485: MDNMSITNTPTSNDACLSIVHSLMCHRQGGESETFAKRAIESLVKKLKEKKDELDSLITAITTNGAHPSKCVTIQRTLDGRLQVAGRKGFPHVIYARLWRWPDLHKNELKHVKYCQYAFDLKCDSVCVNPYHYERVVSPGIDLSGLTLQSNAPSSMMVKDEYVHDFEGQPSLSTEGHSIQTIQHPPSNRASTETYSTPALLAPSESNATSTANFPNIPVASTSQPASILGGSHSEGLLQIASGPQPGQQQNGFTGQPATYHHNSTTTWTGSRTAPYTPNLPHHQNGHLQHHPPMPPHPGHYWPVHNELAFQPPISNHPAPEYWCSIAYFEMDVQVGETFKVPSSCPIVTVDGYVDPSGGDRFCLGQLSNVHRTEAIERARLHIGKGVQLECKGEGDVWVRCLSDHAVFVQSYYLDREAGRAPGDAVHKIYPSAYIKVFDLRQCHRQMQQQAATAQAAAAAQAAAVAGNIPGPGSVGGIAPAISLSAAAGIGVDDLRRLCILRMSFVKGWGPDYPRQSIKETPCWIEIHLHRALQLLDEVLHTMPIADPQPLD
UniProt Q9BRP0: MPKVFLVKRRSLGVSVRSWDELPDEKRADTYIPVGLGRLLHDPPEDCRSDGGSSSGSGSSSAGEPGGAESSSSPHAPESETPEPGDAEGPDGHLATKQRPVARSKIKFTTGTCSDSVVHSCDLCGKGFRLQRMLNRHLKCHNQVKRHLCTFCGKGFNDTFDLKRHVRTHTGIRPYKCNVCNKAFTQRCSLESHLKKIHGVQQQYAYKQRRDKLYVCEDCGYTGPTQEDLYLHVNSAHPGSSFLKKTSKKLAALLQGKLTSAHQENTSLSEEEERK

## HA-SMAD7 (from UniProt O15105 1-426)
[1]
  binding: binds

## OVOL1 (endogenous) (from UniProt O14753 1-267)
[2]
  binding: binds

## Ovo-like transcriptional repressor 1 (OVOL1) (from UniProt O14753 1-267)
[3]
  binding: binds
[4]
  binding: binds

## OVOL2 (from UniProt Q9BRP0 1-275)
SMAD2
  binding: binds
SMAD3
  binding: binds
SMAD4
  binding: binds
[5]
  binding: binds weakly

B1: RNF12 (enzyme, UniProt Q9NVW2 1-624)
chain: MENSDSNDKGSGDQSAAQRRSQMDRLDREEAFYQFVNNLSEEDYRLMRDNNLLGTPGESTEEELLRRLQQIKEGPPPQNSDENRGGDSSDDVSNGDSIIDWLNSVRQTGNTTRSGQRGNQSWRAVSRTNPNSGDFRFSLEINVNRNNGSQNSENENEPSARRSSGENVENNSQRQVENPRSESTSARPSRSERNSTEALTEVPPTRGQRRARSRSPDHRRTRARAERSRSPLHPMSEIPRRSHHSISSQTFEHPLVNETEGSSRTRHHVTLRQQISGPELLSRGLFAASGTRNASQGAGSSDTAASGESTGSGQRPPTIVLDLQVRRVRPGEYRQRDSIASRTRSRSQTPNNTVTYESERGGFRRTFSRSERAGVRTYVSTIRIPIRRILNTGLSETTSVAIQTMLRQIMTGFGELSYFMYSDSDSEPTGSVSNRNMERAESRSGRGGSGGGSSSGSSSSSSSSSSSSSSSSSSSSPSSSSGGESSETSSDLFEGSNEGSSSSGSSGARREGRHRAPVTFDESGSLPFLSLAQFFLLNEDDDDQPRGLTKEQIDNLAMRSFGENDALKTCSVCITEYTEGNKLRKLPCSHEYHVHCIDRWLSENSTCPICRRAVLASGNRESVV
[3]
  binding: binds

B2: ARKADIA (enzyme, UniProt Q6ZNA4 1-994)
chain: MSQWTPEYNELYTLKVDMKSEIPSDAPKTQESLKGILLHPEPIGAAKSFPAGVEMINSKVGNEFSHLCDDSQKQEKEMNGNQQEQEKSLVVRKKRKSQQAGPSYVQNCVKENQGILGLRQHLGTPSDEDNDSSFSDCLSSPSSSLHFGDSDTVTSDEDKEVSVRHSQTILNAKSRSHSARSHKWPRTETESVSGLLMKRPCLHGSSLRRLPCRKRFVKNNSSQRTQKQKERILMQRKKREVLARRKYALLPSSSSSSENDLSSESSSSSSTEGEEDLFVSASENHQNNPAVPSGSIDEDVVVIEASSTPQVTANEEINVTSTDSEVEIVTVGESYRSRSTLGHSRSHWSQGSSSHASRPQEPRNRSRISTVIQPLRQNAAEVVDLTVDEDEPTVVPTTSARMESQATSASINNSNPSTSEQASDTASAVTSSQPSTVSETSATLTSNSTTGTSIGDDSRRTTSSAVTETGPPAMPRLPSCCPQHSPCGGSSQNHHALGHPHTSCFQQHGHHFQHHHHHHHTPHPAVPVSPSFSDPACPVERPPQVQAPCGANSSSGTSYHEQQALPVDLSNSGIRSHGSGSFHGASAFDPCCPVSSSRAAIFGHQAAAAAPSQPLSSIDGYGSSMVAQPQPQPPPQPSLSSCRHYMPPPYASLTRPLHHQASACPHSHGNPPPQTQPPPQVDYVIPHPVHAFHSQISSHATSHPVAPPPPTHLASTAAPIPQHLPPTHQPISHHIPATAPPAQRLHPHEVMQRMEVQRRRMMQHPTRAHERPPPHPHRMHPNYGHGHHIHVPQTMSSHPRQAPERSAWELGIEAGVTAATYTPGALHPHLAHYHAPPRLHHLQLGALPLMVPDMAGYPHIRYISSGLDGTSFRGPFRGNFEELIHLEERLGNVNRGASQGTIERCTYPHKYKKVTTDWFSQRKLHCKQDGEEGTEEDTEEKCTICLSILEEGEDVRRLPCMHLFHQVCVDQWLITNKKCPICRVDIEAQLPSES
[3]
  binding: binds

B3: USP26 (enzyme, UniProt Q9BXU7 1-913)
chain: MAALFLRGFVQIGNCKTGISKSKEAFIEAVERKKKDRLVLYFKSGKYSTFRLSDNIQNVVLKSYRGNQNHLHLTLQNNNGLFIEGLSSTDAEQLKIFLDRVHQNEVQPPVRPGKGGSVFSSTTQKEINKTSFHKVDEKSSSKSFEIAKGSGTGVLQRMPLLTSKLTLTCGELSENQHKKRKRMLSSSSEMNEEFLKENNSVEYKKSKADCSRCVSYNREKQLKLKELEENKKLECESSCIMNATGNPYLDDIGLLQALTEKMVLVFLLQQGYSDGYTKWDKLKLFFELFPEKICHGLPNLGNTCYMNAVLQSLLSIPSFADDLLNQSFPWGKIPLNALTMCLARLLFFKDTYNIEIKEMLLLNLKKAISAAAEIFHGNAQNDAHEFLAHCLDQLKDNMEKLNTIWKPKSEFGEDNFPKQVFADDPDTSGFSCPVITNFELELLHSIACKACGQVILKTELNNYLSINLPQRIKAHPSSIQSTFDLFFGAEELEYKCAKCEHKTSVGVHSFSRLPRILIVHLKRYSLNEFCALKKNDQEVIISKYLKVSSHCNEGTRPPLPLSEDGEITDFQLLKVIRKMTSGNISVSWPATKESKDILAPHIGSDKESEQKKGQTVFKGASRRQQQKYLGKNSKPNELESVYSGDRAFIEKEPLAHLMTYLEDTSLCQFHKAGGKPASSPGTPLSKVDFQTVPENPKRKKYVKTSKFVAFDRIINPTKDLYEDKNIRIPERFQKVSEQTQQCDGMRICEQAPQQALPQSFPKPGTQGHTKNLLRPTKLNLQKSNRNSLLALGSNKNPRNKDILDKIKSKAKETKRNDDKGDHTYRLISVVSHLGKTLKSGHYICDAYDFEKQIWFTYDDMRVLGIQEAQMQEDRRCTGYIFFYMHNEIFEEMLKREENAQLNSKEVEETLQKE
[3]
  binding: binds
